Test results published in paper PMC12316019.
These are yes or no findings as the source states them, for the method shown. Binding seen in cells or lysates may run through a third protein. A yes stands for co-enrichment or nearness to the bait. Other partners may have been found. Sequences can lack the tags named with a protein. Each block holds one molecule with its values, some of them ahead of it.

Protein sequences, listed by entry. Tags and fused reporters are not part of them.
UniProt P46379: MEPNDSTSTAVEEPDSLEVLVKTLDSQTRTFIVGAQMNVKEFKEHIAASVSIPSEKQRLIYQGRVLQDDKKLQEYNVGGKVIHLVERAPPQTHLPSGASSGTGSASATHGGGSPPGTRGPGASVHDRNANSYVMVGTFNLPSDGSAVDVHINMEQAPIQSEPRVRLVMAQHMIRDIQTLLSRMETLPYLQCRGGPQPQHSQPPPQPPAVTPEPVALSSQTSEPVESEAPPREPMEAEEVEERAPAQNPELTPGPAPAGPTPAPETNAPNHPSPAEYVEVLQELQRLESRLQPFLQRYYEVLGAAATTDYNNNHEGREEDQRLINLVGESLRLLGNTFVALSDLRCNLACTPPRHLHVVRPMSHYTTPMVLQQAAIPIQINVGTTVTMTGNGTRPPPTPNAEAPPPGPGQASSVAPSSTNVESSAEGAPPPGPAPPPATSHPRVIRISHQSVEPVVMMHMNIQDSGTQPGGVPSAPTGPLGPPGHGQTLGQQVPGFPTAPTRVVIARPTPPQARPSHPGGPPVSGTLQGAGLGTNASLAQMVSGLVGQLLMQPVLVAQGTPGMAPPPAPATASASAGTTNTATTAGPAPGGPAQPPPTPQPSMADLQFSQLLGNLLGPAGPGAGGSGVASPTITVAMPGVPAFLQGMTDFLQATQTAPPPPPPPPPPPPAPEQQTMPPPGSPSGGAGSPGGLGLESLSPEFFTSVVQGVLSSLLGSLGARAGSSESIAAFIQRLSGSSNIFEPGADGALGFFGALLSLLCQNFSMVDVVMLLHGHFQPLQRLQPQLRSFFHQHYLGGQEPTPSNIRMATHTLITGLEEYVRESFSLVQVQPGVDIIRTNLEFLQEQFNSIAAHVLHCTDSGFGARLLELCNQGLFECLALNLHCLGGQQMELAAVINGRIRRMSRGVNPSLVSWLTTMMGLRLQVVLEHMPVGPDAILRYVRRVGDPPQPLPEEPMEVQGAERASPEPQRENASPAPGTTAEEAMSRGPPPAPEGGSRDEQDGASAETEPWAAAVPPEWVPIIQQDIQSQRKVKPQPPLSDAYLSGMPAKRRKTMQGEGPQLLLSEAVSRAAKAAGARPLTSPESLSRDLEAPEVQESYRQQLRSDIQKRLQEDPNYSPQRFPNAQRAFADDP
UniProt O43681: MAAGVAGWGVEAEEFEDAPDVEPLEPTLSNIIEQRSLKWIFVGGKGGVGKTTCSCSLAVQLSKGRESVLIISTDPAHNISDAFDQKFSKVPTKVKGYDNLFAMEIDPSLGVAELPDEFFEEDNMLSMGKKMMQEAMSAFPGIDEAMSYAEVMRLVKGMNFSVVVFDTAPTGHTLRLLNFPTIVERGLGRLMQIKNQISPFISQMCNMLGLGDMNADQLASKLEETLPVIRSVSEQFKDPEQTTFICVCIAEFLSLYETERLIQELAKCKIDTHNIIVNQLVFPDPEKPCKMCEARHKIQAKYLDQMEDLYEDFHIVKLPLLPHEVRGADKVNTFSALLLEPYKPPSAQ

Molecular target: T1, EGFP-TREX1^WT (human) (UniProt Q9NSU2)
T1 sequence: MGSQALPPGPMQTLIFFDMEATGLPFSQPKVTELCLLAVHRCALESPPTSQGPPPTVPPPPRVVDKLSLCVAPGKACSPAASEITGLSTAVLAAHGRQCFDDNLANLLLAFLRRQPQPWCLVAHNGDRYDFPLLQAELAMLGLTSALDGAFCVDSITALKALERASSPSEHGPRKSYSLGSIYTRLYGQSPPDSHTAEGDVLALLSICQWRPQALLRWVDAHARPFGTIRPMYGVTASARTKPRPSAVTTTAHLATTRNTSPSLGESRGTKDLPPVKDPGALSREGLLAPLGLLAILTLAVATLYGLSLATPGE
Experiment: affinity purification with mass spectrometry; GFP-Trap agarose on RIPA lysates of tetracycline-induced (24 h) stable HeLa^FTO lines, lysate and beads 2 h at 4°C; relative quantification by LC-MS-MS, TREX1^V235fs versus TREX1^WT; three independent experiments

binding: binds
Molecule: BAG6 (from UniProt P46379 1-1132)

binding: binds
Molecule: Guided Entry of Tail-Anchored Proteins Factor 3 (from UniProt O43681 1-348)

binding: binds
B1: EMC1 (protein, UniProt Q8N766 23-993)
chain: YEDQVGKFDWRQQYVGKVKFASLEFSPGSKKLVVATEKNVIAALNSRTGEILWRHVDKGTAEGAVDAMLLHGQDVITVSNGGRIMRSWETNIGGLNWEITLDSGSFQALGLVGLQESVRYIAVLKKTTLALHHLSSGHLKWVEHLPESDSIHYQMVYSYGSGVVWALGVVPFSHVNIVKFNVEDGEIVQQVRVSTPWLQHLSGACGVVDEAVLVCPDPSSRSLQTLALETEWELRQIPLQSLDLEFGSGFQPRVLPTQPNPVDASRAQFFLHLSPSHYALLQYHYGTLSLLKNFPQTALVSFATTGEKTVAAVMACRNEVQKSSSSEDGSMGSFSEKSSSKDSLACFNQTYTINLYLVETGRRLLDTTITFSLEQSGTRPERLYIQVFLKKDDSVGYRALVQTEDHLLLFLQQLAGKVVLWSREESLAEVVCLEMVDLPLTGAQAELEGEFGKKADGLLGMFLKRLSSQLILLQAWTSHLWKMFYDARKPRSQIKNEINIDTLARDEFNLQKMMVMVTASGKLFGIESSSGTILWKQYLPNVKPDSSFKLMVQRTTAHFPHPPQCTLLVKDKESGMSSLYVFNPIFGKWSQVAPPVLKRPILQSLLLPVMDQDYAKVLLLIDDEYKVTAFPATRNVLRQLHELAPSIFFYLVDAEQGRLCGYRLRKDLTTELSWELTIPPEVQRIVKVKGKRSSEHVHSQGRVMGDRSVLYKSLNPNLLAVVTESTDAHHERTFIGIFLIDGVTGRIIHSSVQKKAKGPVHIVHSENWVVYQYWNTKARRNEFTVLELYEGTEQYNATAFSSLDRPQLPQVLQQSYIFPSSISAMEATITERGITSRHLLIGLPSGAILSLPKALLDPRRPEIPTEQSREENLIPYSPDVQIHAERFINYNQTVSRMRGIYTAPSGLESTCLVVAYGLDIYQTRVYPSKQFDVLKDDYDYVLISSVLFGLVFATMITKRLAQVKLLNRAWR
